# At least one read-out could not be matched to a standard name with certainty.
# Test: Determination of solubilization of ADD in 2% surfactant solution
# Assay type: physicochemical
# Details: single surfactant, 2% solution, 28° C., 72 hrs
substance,measurement,value
Triton X-100,solubilization upon ADD,superior to Triton X-114 in solubilization
